Results reported in the supplement of paper PMC12819154, “High-throughput peptide-centric local stability assay extends protein–ligand identification to membrane proteins, tissues and bacteria” (Nature Structural & Molecular Biology, 2025).
Some of the results follow. Most entries show no effect beyond the scatter of the controls.

Chains of the proteins cited; added tags and fusions are not shown. Lines headed by an entry give the natural chain unless they say otherwise; changes in a name come on top.
UniProt Q02218: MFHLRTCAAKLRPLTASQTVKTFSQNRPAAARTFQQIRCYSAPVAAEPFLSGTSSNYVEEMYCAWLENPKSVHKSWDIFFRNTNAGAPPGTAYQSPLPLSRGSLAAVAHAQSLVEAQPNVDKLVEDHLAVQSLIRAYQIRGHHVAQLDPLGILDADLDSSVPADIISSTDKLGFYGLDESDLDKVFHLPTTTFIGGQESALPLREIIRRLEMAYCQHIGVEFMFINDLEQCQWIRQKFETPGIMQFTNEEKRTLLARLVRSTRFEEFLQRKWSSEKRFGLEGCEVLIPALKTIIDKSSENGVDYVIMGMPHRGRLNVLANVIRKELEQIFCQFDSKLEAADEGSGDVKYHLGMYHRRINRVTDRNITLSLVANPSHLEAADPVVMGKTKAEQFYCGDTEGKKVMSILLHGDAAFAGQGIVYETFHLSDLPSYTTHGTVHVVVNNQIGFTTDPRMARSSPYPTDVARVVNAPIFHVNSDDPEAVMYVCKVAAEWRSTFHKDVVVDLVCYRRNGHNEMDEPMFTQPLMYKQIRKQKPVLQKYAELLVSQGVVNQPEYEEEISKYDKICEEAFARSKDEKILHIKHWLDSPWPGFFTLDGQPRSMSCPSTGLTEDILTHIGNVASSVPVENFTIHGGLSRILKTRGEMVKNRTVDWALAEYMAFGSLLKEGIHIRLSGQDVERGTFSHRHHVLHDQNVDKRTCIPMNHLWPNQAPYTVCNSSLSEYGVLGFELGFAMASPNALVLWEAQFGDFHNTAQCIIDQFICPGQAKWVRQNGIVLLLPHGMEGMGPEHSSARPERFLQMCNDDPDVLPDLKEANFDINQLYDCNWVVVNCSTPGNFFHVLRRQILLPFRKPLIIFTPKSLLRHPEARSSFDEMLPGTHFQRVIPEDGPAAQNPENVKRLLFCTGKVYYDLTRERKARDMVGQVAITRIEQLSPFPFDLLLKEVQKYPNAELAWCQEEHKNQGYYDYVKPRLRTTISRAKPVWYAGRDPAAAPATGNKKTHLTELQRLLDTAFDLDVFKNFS
UniProt Q05209: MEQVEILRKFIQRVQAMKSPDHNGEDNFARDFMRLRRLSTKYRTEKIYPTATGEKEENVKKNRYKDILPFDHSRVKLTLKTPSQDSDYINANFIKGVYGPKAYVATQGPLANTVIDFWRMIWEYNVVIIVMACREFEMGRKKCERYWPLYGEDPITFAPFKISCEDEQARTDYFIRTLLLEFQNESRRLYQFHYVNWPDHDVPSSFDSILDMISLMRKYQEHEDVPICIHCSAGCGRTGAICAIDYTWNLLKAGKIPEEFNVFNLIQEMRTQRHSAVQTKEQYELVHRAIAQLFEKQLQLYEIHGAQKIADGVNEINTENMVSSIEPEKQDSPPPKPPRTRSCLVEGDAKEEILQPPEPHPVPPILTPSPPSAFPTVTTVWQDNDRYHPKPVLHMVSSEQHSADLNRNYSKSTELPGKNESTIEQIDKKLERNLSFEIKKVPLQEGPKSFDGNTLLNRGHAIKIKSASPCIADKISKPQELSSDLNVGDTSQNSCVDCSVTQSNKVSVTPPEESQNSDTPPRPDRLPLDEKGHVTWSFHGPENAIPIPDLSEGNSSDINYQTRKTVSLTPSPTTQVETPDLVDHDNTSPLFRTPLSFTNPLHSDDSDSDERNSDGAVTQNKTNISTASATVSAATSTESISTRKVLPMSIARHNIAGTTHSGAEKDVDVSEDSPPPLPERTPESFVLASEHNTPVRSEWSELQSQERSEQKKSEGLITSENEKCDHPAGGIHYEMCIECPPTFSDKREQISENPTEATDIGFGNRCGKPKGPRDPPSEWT
UniProt Q01813: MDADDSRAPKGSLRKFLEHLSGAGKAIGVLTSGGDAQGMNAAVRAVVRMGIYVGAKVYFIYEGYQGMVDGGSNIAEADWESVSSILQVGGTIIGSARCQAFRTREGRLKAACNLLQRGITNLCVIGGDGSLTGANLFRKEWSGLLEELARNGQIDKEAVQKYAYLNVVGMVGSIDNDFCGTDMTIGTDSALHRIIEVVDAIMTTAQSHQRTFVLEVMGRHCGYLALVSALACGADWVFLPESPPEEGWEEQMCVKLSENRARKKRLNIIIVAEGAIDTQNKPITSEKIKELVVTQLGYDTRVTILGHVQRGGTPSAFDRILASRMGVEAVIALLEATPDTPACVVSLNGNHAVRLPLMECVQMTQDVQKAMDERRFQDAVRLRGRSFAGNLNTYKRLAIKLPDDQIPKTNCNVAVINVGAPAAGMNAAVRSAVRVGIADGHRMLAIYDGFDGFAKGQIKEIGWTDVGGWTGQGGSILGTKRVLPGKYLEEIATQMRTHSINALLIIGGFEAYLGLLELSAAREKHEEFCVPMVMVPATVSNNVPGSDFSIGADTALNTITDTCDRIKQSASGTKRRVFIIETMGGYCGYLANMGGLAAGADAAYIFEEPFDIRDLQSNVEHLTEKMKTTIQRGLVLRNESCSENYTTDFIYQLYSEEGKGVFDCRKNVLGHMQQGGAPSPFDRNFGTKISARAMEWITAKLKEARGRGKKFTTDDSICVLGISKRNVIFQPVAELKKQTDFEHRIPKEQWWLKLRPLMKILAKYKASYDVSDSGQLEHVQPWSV
UniProt Q12906, whole entry: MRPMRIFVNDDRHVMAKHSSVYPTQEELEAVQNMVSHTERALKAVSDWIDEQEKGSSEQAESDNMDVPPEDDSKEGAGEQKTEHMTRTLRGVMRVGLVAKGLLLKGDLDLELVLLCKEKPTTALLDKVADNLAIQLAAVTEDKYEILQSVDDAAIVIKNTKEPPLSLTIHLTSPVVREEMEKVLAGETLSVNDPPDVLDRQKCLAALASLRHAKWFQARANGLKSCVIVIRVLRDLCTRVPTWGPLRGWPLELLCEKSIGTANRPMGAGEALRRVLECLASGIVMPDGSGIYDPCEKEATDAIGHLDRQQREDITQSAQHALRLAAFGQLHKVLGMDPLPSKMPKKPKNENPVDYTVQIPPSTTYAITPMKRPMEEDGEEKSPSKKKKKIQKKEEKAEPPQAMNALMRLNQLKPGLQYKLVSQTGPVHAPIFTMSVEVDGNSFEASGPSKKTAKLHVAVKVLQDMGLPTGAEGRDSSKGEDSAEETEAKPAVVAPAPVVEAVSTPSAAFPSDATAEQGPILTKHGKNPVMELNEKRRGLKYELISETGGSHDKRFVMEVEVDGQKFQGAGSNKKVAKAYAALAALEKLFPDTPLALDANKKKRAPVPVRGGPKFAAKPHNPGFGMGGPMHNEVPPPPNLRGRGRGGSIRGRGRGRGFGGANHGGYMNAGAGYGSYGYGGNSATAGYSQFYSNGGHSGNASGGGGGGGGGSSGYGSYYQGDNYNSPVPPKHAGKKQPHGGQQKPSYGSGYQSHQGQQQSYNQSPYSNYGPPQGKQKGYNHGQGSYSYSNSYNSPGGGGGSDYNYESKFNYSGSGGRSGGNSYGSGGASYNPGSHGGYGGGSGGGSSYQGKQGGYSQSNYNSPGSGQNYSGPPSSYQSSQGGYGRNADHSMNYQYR
UniProt P98175: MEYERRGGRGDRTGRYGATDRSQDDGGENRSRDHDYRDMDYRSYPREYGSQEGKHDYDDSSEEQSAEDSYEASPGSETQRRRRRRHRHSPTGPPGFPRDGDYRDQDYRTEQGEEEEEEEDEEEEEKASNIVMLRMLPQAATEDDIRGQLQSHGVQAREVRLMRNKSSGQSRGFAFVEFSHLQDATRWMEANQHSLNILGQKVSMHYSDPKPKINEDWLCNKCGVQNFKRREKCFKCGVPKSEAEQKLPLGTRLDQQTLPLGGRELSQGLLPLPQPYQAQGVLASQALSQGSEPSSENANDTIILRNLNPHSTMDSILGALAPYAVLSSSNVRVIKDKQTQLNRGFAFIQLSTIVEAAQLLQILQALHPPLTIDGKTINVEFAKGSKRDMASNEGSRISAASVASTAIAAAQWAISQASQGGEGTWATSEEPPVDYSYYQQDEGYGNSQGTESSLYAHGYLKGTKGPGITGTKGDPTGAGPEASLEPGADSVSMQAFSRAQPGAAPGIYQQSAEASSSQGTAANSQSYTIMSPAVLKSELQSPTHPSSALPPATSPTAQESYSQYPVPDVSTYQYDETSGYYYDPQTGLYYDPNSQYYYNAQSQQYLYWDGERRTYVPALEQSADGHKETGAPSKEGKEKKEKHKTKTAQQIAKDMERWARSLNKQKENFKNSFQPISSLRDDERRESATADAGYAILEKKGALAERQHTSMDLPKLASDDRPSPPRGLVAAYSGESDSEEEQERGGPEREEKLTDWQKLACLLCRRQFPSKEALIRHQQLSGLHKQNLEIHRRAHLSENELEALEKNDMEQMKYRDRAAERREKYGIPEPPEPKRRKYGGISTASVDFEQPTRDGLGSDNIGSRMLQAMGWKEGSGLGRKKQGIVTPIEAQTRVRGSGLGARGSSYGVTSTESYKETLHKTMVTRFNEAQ
UniProt Q13136: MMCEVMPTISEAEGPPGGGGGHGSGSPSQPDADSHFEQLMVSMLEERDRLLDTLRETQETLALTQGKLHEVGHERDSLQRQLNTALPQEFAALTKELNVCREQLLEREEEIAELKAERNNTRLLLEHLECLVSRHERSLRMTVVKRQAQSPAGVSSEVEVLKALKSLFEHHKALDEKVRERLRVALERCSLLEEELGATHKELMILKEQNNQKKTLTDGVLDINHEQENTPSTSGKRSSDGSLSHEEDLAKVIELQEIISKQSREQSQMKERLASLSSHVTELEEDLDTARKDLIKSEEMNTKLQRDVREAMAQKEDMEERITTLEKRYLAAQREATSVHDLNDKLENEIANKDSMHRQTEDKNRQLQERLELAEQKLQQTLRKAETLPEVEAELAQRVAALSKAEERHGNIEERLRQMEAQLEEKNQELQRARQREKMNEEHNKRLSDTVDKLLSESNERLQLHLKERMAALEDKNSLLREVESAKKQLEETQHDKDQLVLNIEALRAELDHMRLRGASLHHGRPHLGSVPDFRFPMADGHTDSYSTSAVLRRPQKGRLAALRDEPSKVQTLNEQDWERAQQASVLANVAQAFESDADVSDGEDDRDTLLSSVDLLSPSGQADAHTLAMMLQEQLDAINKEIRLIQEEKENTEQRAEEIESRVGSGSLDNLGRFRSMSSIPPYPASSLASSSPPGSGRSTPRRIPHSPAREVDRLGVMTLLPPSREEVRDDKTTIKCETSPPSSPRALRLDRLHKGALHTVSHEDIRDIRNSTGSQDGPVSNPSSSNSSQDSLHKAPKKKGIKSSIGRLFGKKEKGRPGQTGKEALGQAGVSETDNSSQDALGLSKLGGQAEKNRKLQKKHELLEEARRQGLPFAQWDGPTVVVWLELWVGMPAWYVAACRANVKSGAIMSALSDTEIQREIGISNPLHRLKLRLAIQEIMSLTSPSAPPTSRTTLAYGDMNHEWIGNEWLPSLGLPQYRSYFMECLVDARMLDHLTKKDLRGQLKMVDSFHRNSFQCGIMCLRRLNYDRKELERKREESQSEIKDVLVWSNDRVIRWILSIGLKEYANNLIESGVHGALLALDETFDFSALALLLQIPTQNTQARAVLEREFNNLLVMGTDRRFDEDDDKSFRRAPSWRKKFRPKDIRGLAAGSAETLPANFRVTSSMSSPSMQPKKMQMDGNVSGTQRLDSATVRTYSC
UniProt Q13015: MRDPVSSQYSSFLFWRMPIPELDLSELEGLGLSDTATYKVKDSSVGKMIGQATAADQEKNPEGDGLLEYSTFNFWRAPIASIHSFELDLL
UniProt Q12874: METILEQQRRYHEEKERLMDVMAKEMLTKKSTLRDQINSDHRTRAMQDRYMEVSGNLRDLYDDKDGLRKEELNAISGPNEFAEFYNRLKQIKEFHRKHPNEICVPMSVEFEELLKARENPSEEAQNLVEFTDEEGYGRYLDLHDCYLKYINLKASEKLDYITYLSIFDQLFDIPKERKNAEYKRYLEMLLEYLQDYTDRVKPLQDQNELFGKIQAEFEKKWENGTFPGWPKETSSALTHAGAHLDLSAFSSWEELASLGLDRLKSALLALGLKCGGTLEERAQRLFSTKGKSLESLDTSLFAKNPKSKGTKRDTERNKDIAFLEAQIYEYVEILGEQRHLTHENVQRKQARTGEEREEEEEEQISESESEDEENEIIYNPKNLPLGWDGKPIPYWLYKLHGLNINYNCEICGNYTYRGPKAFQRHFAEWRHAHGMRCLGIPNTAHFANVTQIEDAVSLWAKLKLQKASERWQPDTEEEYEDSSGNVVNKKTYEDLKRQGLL
UniProt Q04837: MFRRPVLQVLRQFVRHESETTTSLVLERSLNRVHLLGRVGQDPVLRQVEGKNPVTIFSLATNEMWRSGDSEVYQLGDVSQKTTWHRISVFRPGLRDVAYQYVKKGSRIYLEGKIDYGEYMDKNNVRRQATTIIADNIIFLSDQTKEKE
UniProt Q01469, whole entry: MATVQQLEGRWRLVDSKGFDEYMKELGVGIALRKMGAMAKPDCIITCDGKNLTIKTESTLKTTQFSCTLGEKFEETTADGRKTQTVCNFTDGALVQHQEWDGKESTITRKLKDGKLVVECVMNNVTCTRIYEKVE

What follows are targets tested with CN[C@@H]1C[C@H]2O[C@@](C)([C@@H]1OC)n1c3ccccc3c3c4c(c5c6ccccc6n2c5c31)C(=O)NC4 [staurosporine] (assay: log2 fold change of tryptic peptide abundance, ligand vs vehicle (limited proteolysis) (log2 ratio); higher = more trypsin-susceptible (destabilized)). Details: ligand concentration: 20 uM; sample: K562 cleared lysate; digestion: 4 min, 22 C (HT-PELSA RT4min, Orbitrap Astral).

| Target | log2 fold change |
| --- | --- |
| CHAF1A (peptide sequence: EDSGSVPSTGPSQGTPISLK, peptide start residue: 851) (UniProt Q13111) | -0.724 |
| BCL2L1 (peptide sequence: EAGDEFELR, peptide start residue: 92) (UniProt Q07817) | -0.11 |
| CAP1 (peptide sequence: HAEMVHTGLK, peptide start residue: 72) (UniProt Q01518) | 0.62 |
| RELA (peptide sequence: DPSGRPLR, peptide start residue: 167) (UniProt Q04206) | 0.196 |
| HMGCS1 (peptide sequence: LPATAAEPEAAVISNGEH, peptide start residue: 503) (UniProt Q01581) | -0.0512 |
| OGDH (peptide sequence: SWDIFFR, peptide start residue: 75) (UniProt Q02218) | -0.105 |
| UniProt Q12872 (peptide sequence: LEELMKPLK, peptide start residue: 310) | 0.412 |
| PLCB2 (peptide sequence: EALAEYEAR, peptide start residue: 1122) (UniProt Q00722) | 0.125 |
| PTPN12 (peptide sequence: NSDGAVTQNK, peptide start residue: 612) (UniProt Q05209) | -0.404 |
| PFKP (peptide sequence: LNIIIVAEGAIDTQNKPITSEKIK, peptide start residue: 266) (UniProt Q01813) | -0.447 |
| ILF3 (peptide sequence: SIGTANRPMGAGEALR, peptide start residue: 258) (UniProt Q12906) | 0.457 |
| KIF23 (peptide sequence: ENQMYGTNK, peptide start residue: 376) (UniProt Q02241) | 0.92 |
| BNIP1 (peptide sequence: AELLQGGDLLR, peptide start residue: 112) (UniProt Q12981) | -0.219 |
| Q6ZWR4 (peptide sequence: DVTLEASR, peptide start residue: 382) (UniProt Q00005) | -0.18 |
| RBM10 (peptide sequence: RESATADAGYAILEK, peptide start residue: 685) (UniProt P98175) | -0.58 |
| FKBP3 (peptide sequence: FLQEHGSDSFLAEHK, peptide start residue: 28) (UniProt Q00688) | -0.117 |
| TP53BP1 (peptide sequence: MESLSSHR, peptide start residue: 528) (UniProt Q12888) | 0.258 |
| CRYZ (peptide sequence: VHACGVNPVETYIR, peptide start residue: 42) (UniProt Q08257) | -0.509 |
| GFPT1 (peptide sequence: GYDVDFPR, peptide start residue: 683) (UniProt Q06210) | -0.232 |
| UniProt P98077 (peptide sequence: HLLLVDPEGVVR, peptide start residue: 532) | 0.0043 |

| Target | log2 fold change |
| --- | --- |
| NFATC3 (peptide sequence: VHIPQPSGK, peptide start residue: 570) (UniProt Q12968) | 0.629 |
| SCAP (peptide sequence: QLAVRPSTPHTITLQPSSFR, peptide start residue: 477) (UniProt Q12770) | -0.178 |
| DMTN (peptide sequence: TSLPHFHHPETSRPDSNIYK, peptide start residue: 123) (UniProt Q08495) | -0.4 |
| PPFIA1 (peptide sequence: FPMADGHTDSYSTSAVLR, peptide start residue: 536) (UniProt Q13136) | -0.462 |
| MLLT11 (peptide sequence: MIGQATAADQEK, peptide start residue: 48) (UniProt Q13015) | -0.354 |
| NFIA (peptide sequence: GIPLESTDGER, peptide start residue: 140) (UniProt Q12857) | -0.113 |
| DAB2 (peptide sequence: IWVNISLSGIK, peptide start residue: 93) (UniProt P98082) | -0.187 |
| UniProt Q04741 (peptide sequence: NHYVVGAERK, peptide start residue: 214) | -0.0462 |
| UBXN1 (peptide sequence: GEELGGGQDPVQLLSGFPR, peptide start residue: 248) (UniProt Q04323) | -0.166 |
| SF3A3 (peptide sequence: YMEVSGNLRDLYDDKDGLR, peptide start residue: 50) (UniProt Q12874) | -0.617 |
| SSBP1 (peptide sequence: NPVTIFSLATNEMWR, peptide start residue: 52) (UniProt Q04837) | -0.43 |
| CEBPZ (peptide sequence: MLSALLTGVNR, peptide start residue: 482) (UniProt Q03701) | 0.155 |
| CAV1 (peptide sequence: EQGNIYKPNNK, peptide start residue: 20) (UniProt Q03135) | 0.301 |
| REL (peptide sequence: RPLFFQNLGIR, peptide start residue: 98) (UniProt Q04864) | 0.144 |
| SORD (peptide sequence: ALEAFETFKK, peptide start residue: 331) (UniProt Q00796) | 0.0641 |
| FABP5 (peptide sequence: ATVQQLEGR, peptide start residue: 2) (UniProt Q01469) | 0.323 |
| HNRNPU (peptide sequence: SSSPVNVK, peptide start residue: 2) (UniProt Q00839) | -0.167 |
| C1QBP (peptide sequence: AFVDFLSDEIKEERK, peptide start residue: 81) (UniProt Q07021) | 0.164 |
| EXOSC10 (peptide sequence: KAQNIMESFENPFR, peptide start residue: 680) (UniProt Q01780) | -0.21 |
| GOLGA3 (peptide sequence: SQGTSAEGSVR, peptide start residue: 107) (UniProt Q08378) | -0.449 |

2 entries drawn at random from the list so far:

| Target | log2 fold change |
| --- | --- |
| NFATC3 (peptide sequence: VHIPQPSGK, peptide start residue: 570) (UniProt Q12968) | 0.629 |
| EXOSC10 (peptide sequence: KAQNIMESFENPFR, peptide start residue: 680) (UniProt Q01780) | -0.21 |
